US20040110844A1, “Anti-tumor pharmaceutical composition comprising N-vanillyl fatty acid amide” (KUREHA CHEMICAL INDUSTRY COMPANY, Limited, priority 2002, published 2004)

Experiment: Degrees of hotness at the relative value by organoleptic examination
Conditions: minimum value of hotness detected with the tongue of examiner; capsaicin regarded as 1

SMILES | degree of hotness (relative value)
CC/C=C\C/C=C\C/C=C\C/C=C\C/C=C\C/C=C\CCC(=O)NCc1ccc(O)c(OC)c1 [Dohevanil, N-vanillyl-4,7,10,13,16,19-Docosahexaenamide] | 10^−5
COc1cc(CNC(=O)CCCCC=CC(C)C)ccc1O [capsaicin, 8-methyl-N-vanillyl-6-nonenamide] | 1
